Test results: patent EP1961762A1, “Inhibitors of protein phosphatase 1/GADD34, preparation and uses thereof” (Institut Gustave Roussy, priority 2007, dated 2008)
At least one peptide structure holds a part that was inferred or is arguable (an end, a ring closure or a residue). Ends that are not written are not given here.

Legend:
[1] = test system: murine CT26 colon cancer cells; test: Calreticulin exposure, immunofluorescence staining and cytofluorometric analysis; assay type: cell-based; settings: 2 hours
Protocol: CT26 cells were cultured for 24 hours in the presence of the indicated agents for 24hrs, as described in Materials and Methods, and then were stained with Annexin V-FITC and the vital dye DAPI. • Fig. 1B: Identification of immunogenic cell death inducers. CT26 cells cultured as in Fig.1A were injected into the left flank, followed by injection of life tumour cells in the right flank 8 days later. The percentage of tumour free mice was determined 120 days later as in Fig.1C. • Fig. 1C: Incidence of tumours after inoculation of dying cells. Day 1 was considered the day of inoculation of dying tumour cells, 1 week before challenge with […]. • Fig. 1S. Dissociation of CRT exposure and phosphatidyl serine exposure. • Fig. 1SA, Fig. 1SB: Kinetics of CRT exposure. […] Representative pictograms are shown in Fig.1SA and quantitative data are reported in Fig.1SB. • Fig. 1SC, Fig. 1SD: Kinetics of PS exposure and cell death. […] Note that the nuclei of untreated cells were visualized with Hoechst 33342 (blue), while those of doxorubicin-treated cells emit a red fluorescence (Fig.2D). […] The surface exposure of CRT was determined by immunoflurorescence cytometry while gating on viable (propidium iodine-negative) cells (inserts) and was correlated with the immunogenicity of cell death (as determined in Fig. 1). […]

[2] = test system: human HCT116 colon cancer cell; test: as above; assay type: cell-based; settings: 2 hours

VKKKKIKREIKILKARKVRFSEKV [peptide comprising SEQ ID NO:4, VKKKKIKREIKI-LKARKVRFSEKV]
exposure of calreticulin [1]: capable of inducing the exposure of calreticulin | exposure of calreticulin [2]: capable of inducing the exposure of calreticulin
